# Experimental data published in PMC9912943.
# Results are given in words; binding and its absence hold for the method and conditions named. Binding seen in cells or lysates may run through a third protein. Some results given as binding are weak or reduced against the parent protein; the word gives no strength.
# T1: Imd (immune deficiency adaptor protein), expressed in S2 cells (Drosophila melanogaster) (UniProt Q7K4Z4)
# T1 sequence: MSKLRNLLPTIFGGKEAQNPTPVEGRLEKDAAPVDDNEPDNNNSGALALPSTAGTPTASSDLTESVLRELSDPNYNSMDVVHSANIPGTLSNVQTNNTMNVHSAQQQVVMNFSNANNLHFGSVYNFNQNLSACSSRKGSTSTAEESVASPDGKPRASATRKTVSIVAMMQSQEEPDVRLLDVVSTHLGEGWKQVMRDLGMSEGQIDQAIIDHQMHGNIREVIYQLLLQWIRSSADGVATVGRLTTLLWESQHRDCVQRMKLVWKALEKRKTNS
# Target: T1, Imd (immune deficiency adaptor protein), expressed in S2 cells (Drosophila melanogaster)
# Assay: co-IP; S2 cells co-transfected with IMD and CG4968 plasmids, lysed after 48 h (150 mM NaCl, 50 mM Tris-HCl pH 7.5, 10% glycerol, 0.5% Triton X-100); Anti-Flag affinity gel, 4 °C, 4 h; immunoblot
binder,measurement,value
"CG4968 (OTU-type deubiquitinase), expressed in S2 cells (enzyme, UniProt Q9VL00 1-262) MEPFTHNDGNRDELIIQQKRDIEKEISDTTPLVSEQLPLTCLYAEYSGDEIFTAKIQDLSKKYKFIRRTRPDGNCFFRAFAYSYLEYLISNTSAYQEFKKLAEESKEKLVQLGFPSFTLEDFHETFMEVIQRVSPDNAGGHSTVQDELHKIFNEQGYSDYVVVYLRLITSGKLQEEADFYQNFIEGDLTIEAFRHLEVEPMYKESDHIHIIALCTALGAGVRVEYLDRGEGGTVKAHDFPEGSEPRIYLIYRPGHYDILYPN",binding,binds
